These are yes or no findings as the source states them, for the method shown. Binding seen in cells or lysates may run through a third protein. Here binding means that the protein was enriched with, or labelled near, the bait; the list need not be complete.
Biological target: Flag-Beclin 1-HA, Q14457
Assay: affinity purification with mass spectrometry; Flag-Beclin 1-HA from 293 cells treated with PBS or empagliflozin (200 nM, 18 h); lysis in 25 mM Tris pH 7.4, 150 mM NaCl, 1% NP-40, 1 mM EDTA, 5% glycerol; sequential anti-Flag M2 agarose and anti-HA agarose with peptide elution; bands from a SYPRO Ruby stained gel analysed by mass spectrometry
Conditions: remark: other sources report otherwise

binding: binds
B1: Autophagy and Beclin 1 Regulator 1 (AMBRA1), endogenous in 293 cells, Q9C0C7 1-1298 (protein)
chain: MKVVPEKNAVRILWGRERGARAMGAQRLLQELVEDKTRWMKWEGKRVELPDSPRSTFLLAFSPDRTLLASTHVNHNIYITEVKTGKCVHSLIGHRRTPWCVTFHPTISGLIASGCLDGEVRIWDLHGGSESWFTDSNNAIASLAFHPTAQLLLIATANEIHFWDWSRREPFAVVKTASEMERVRLVRFDPLGHYLLTAIVNPSNQQGDDEPEIPIDGTELSHYRQRALLQSQPVRRTPLLHNFLHMLSSRSSGIQVGEQSTVQDSATPSPPPPPPQPSTERPRTSAYIRLRQRVSYPTAECCQHLGILCLCSRCSGTRVPSLLPHQDSVPPASARATTPSFSFVQTEPFHPPEQASSTQQDQGLLNRPSAFSTVQSSTAGNTLRNLSLGPTRRSLGGPLSSHPSRYHREIAPGLTGSEWTRTVLSLNSRSEAESMPPPRTSASSVSLLSVLRQQEGGSQASVYTSATEGRGFPASGLATESDGGNGSSQNNSGSIRHELQCDLRRFFLEYDRLQELDQSLSGEAPQTQQAQEMLNNNIESERPGPSHQPTPHSSENNSNLSRGHLNRCRACHNLLTFNNDTLRWERTTPNYSSGEASSSWQVPSSFESVPSSGSQLPPLERTEGQTPSSSRLELSSSASPQEERTVGVAFNQETGHWERIYTQSSRSGTVSQEALHQDMPEESSEEDSLRRRLLESSLISLSRYDGAGSREHPIYPDPARLSPAAYYAQRMIQYLSRRDSIRQRSMRYQQNRLRSSTSSSSSDNQGPSVEGTDLEFEDFEDNGDRSRHRAPRNARMSAPSLGRFVPRRFLLPEYLPYAGIFHERGQPGLATHSSVNRVLAGAVIGDGQSAVASNIANTTYRLQWWDFTKFDLPEISNASVNVLVQNCKIYNDASCDISADGQLLAAFIPSSQRGFPDEGILAVYSLAPHNLGEMLYTKRFGPNAISVSLSPMGRYVMVGLASRRILLHPSTEHMVAQVFRLQQAHGGETSMRRVFNVLYPMPADQRRHVSINSARWLPEPGLGLAYGTNKGDLVICRPEALNSGVEYYWDQLNETVFTVHSNSRSSERPGTSRATWRTDRDMGLMNAIGLQPRNPATSVTSQGTQTLALQLQNAETQTEREVPEPGTAASGPGEGEGSEYGASGEDALSRIQRLMAEGGMTAVVQREQSTTMASMGGFGNNIIVSHRIHRSSQTGTEPGAAHTSSPQPSTSRGLLPEAGQLAERGLSPRTASWDQPGTPGREPTQPTLPSSSPVPIPVSLPSAEGPTLHCELTNNNHLLDGGSSRGDAAGPRGEPRNR
